Read-outs that look alike come from different tables or passages of the source. No constants are given. Whether binding was seen depends on the method and setting. In cells and extracts the contact can be indirect. Here binding means that the protein was enriched with, or labelled near, the bait; the list need not be complete. Tags and fused reporters may be left off the sequences shown.
T1: Spo0M-FLAG (B. subtilis) (UniProt P71088)
T1 sequence: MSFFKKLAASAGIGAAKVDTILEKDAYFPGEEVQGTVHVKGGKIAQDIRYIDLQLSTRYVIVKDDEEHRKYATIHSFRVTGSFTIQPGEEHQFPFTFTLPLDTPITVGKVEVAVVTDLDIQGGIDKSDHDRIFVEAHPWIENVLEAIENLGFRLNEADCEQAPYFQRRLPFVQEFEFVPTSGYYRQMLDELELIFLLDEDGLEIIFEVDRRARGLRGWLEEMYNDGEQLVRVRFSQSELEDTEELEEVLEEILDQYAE


Assays:
[1] = biological target: T1, Spo0M-FLAG (B. subtilis); experiment: affinity purification with mass spectrometry; E. coli BL21-DE3 extract with Spo0M-FLAG mixed with B. subtilis Bs1A1 total protein extract 2 h at 4°C, then anti-FLAG agarose beads 2 h at 4°C; lysis buffer 50 mM HEPES pH 7.4, 2.5 mM EDTA, 150 mM NaCl, 10% glycerol, 1% NP40; bands differing from the empty-vector control cut from the SDS-PAGE gel for mass spectrometry; three biological replicates
[2] = biological target: T1, Spo0M-FLAG (B. subtilis); experiment: as above; remark: listed apart in the source

binding [1]	binding [2]	Molecule
binds		ClpC (from UniProt P37571 1-810)
binds		PBP4 (from UniProt P40750) (enzyme)
binds		DnaK (from UniProt P17820 1-611)
binds		Clp-P (from UniProt P80244 1-197) (enzyme)
binds		GroEL (from UniProt P28598 1-544)
binds		Hrp kinase (B. subtilis (endogenous in Bs1A1)) (enzyme)
binds		FtsH metalloprotease (from UniProt P37476 1-637) (enzyme)
binds		FtsZ (from UniProt P17865 1-382)
	binds	FtsA (protein, UniProt P28264 1-440) MNNNELYVSLDIGTSNTKVIVGEMTDDSLNIIGVGNVPSEGLKKGSIVDIDETVHSIRKAFDQAERMVGFPLRKAIVGVNGNYINIQDTNGVVAVSSENKEIQVEDVRRVMEAAQVVSVPHEQLIVDVIPKQFIVDGRDEITDPKKMLGVRLEVEGTLITGSKTILHNLLRCVERAGIEITDICLQPLAAGSAALSKDEKNLGVALIDIGGGSTTIAVFQNGHLTSTRVIPLGGENITKDISIGLRTSTEEAERVKKQLGHAYYDEASEDEIFEVTVIGTNQKQTFTQQEAANIIEARVEEILEIVSEELRSMGITDLPGGFVLTGGQAAMPGVMSLAQDVLQNNVRVASPNYIGVRDPQYMTGVGLIQFACRNARIQGRKIGFKMPEEAIQEIAVSSSEEQEQHHHQNEVQQRPKGKQKTQAEHNKQSKMKKLLSMFWE
	binds	PBP1 (enzyme, UniProt P39793 1-914) MSDQFNSREARRKANSKSSPSPKKGKKRKKGGLFKKTLFTLLILFVLGVVGGAVTFAVMVSDAPSLDESKLKTPYSSTIYDKNGKEIAEVGAEKRTYVSIDEIPDVVKEAFIATEDARFYEHHGIDPVRIGGALVANFKDGFGAEGGSTITQQVVKNSLLSHQKTLKRKVQEVWLSIQLERNYSKDEILEMYLNRIYFSPRAYGIGKAAEEFFGVTDLSKLTVEQAATLAGMPQSPTAYNPVKNPDKAEKRRNIVLSLMKKQGFISDSQYNKAKKVAVKDEGVVSQKEYEKASTNKYSAFVEEVMKEIDEKSDVDPSADGLKIYTTLDTKAQDKLDELMDGDTVGFTEGMQGGVTLLDTKNGEVRAIGAGRNQPVGGFNYATQTKAQPGSTIKPILDYGPVIENKKWSTYEQIDDSAYTYSNGKPIRDWDRKYLGPISMRYALAQSRNIPALKAFQAVGKDTAVDFANGLGLGLTKDNVTEAYSIGGFGGNDGVSPLTMAGAYSAFGNNGTYNEPHFVKSIEFNDGTKLDLTPKSKSAMSDYTAFMITDMLKTAVKTGTGQLAQVPGVEVAGKTGTTNFDDNEVKRYNIASGGARDSWFVGYTPQYTAAVWTGMGENEAGKKSLSAEEQKVAKRIFAQLIADVDDGSGSFEKPDSVVEATVEKGSNPAKLAGPNTPSDKKLTEYFVKGTAPSTVSKTYEKEEKEETAKLSGLNVKYDKDNQSLTLSWNYDGDATFAVKQSVDGGSYSEIQNSSAKEAVISGVQPGSVYKFEVTAVSDDGKSTASTSYEVPKAEDDEDKKDQQQTDDEKQDDEKTQDDTQTDDSQKDDGQTDQDQTDDSTNDQDKKQDNTNTNPSDNNNQDQSNDNDNDNSNNQDTSDGDSNSGKNDSTGSDTNKNKTDTSNKTQTNSSSIEKTN
	binds	SepF (protein, UniProt O31728 1-151) MSMKNKLKNFFSMEDEEYEYEYIETERESHEEHEQKEKPAYNGNKPAGKQNVVSLQSVQKSSKVVLSEPRVYAEAQEIADHLKNRRAVVVNLQRIQHDQAKRIVDFLSGTVYAIGGDIQRIGSDIFLCTPDNVDVSGTISELISEDEHQRW
	binds	PBP3 (enzyme, UniProt P42971 1-668) MLKKCILLVFLCVGLIGLIGCSKTDSPEDRMEAFVKQWNDQQFDDMYQSLTKDVKKEISKKDFVNRYKAIYEQAGVKNLKVTAGEVDKDDQDNKTMKHIPYKVSMNTNAGKVSFKNTAVLKLEKTDDEESWNIDWDPSFIFKQLADDKTVQIMSIEPKRGQIYDKNGKGLAVNTDVPEIGIVPGELGDKKEKVIKELAKKLDLTEDDIKKKLDQGWVKDDSFVPLKKVKPDQEKLVSEATSLQGVTRTNVSSRYYPYGEKTAHLTGYVRAITAEELKKKKEGTYSDTSNIGIAGLENVYEDKLRGTTGWKIYVPQTGEVIAEKKAKDGEDLHLTIDIKTQMKLYDELKDDSGAAVALQPKTGETLALVSAPSYDPNGFIFGWSDKEWKKLNKDKNNPFSAKFNKTYAPGSTIKPIAAAIGIKNGTLKADEKKTIKGKEWQKDSSWGGYSVTRVSERLQQVDLENALITSDNIYFAQNALDMGADTFTKGLKTFGFSEDVPYEFPIQKSSIANDKLDSDILLADTGYGQGQMQMSPLHLATAYTPFVDNGDLVKPTLIKKDSQTADVWHKQVVTKEGAADITKGLKGVVEDERGSAYQPVVKGITVAGKTGTAELKTSKDDKDGTENGWFVGYDYENKDLLVAMMIQNVQDRGGSHYVVEKAKKQFQSN
	binds	FloA (protein, UniProt P54466 1-331) MDPSTLMILAIVAVAIIVLAVFFTFVPVMLWISALAAGVKISIFTLVGMRLRRVIPNRVVNPLIKAHKAGLNVGTNQLESHYLAGGNVDRVVNALIAAQRANIELTFERCAAIDLAGRDVLEAVQMSVNPKVIETPFIAGVAMDGIEVKAKARITVRANIERLVGGAGEETIVARVGEGIVSTIGSSDNHKKVLENPDMISQTVLGKGLDSGTAFEILSIDIADVDIGKNIGAILQTDQAEADKNIAQAKAEERRAMAVAQEQEMRARVEEMRAKVVEAEAEVPLAMAEALREGNIGVMDYMNIKNIDADTEMRDSFGKLTKDPSDEDRKS
	binds	PepF (enzyme, UniProt O31605 1-670) MKGTKGKVFRVFTAFLAFVLFITAYDLTKGSEKPEDIHNTSLLRNSCFFNWLESKKTRGITMAEEKKANQLPDRSEVKAEDTWRLEDIFPSDEAWNKEFQAVKELIPNLSKYKGKLADSADHLYEALTYQDKVMERLGRLYTYAHMRSDQDTGNSFYQGLNDKAGNLYTQAASATAYLVPEILSIEEDKLQQFILEKEELKLYSHAIEEITKERPHVLSEKEEALLAEASEVLGSSSNTFSVLNNADITFPSIKDEDGNEKQITHGNFINFLESENREVRKNAFDAVYKTYGQYKNTMATTLSGTVKKDNFYARVKKYKSAREAALSNNSIPEEVYDNLVKTINKHLPLLHRYIALRKKVLELDEVHIYDLYTPLVKDAGMKVTYEEAKDYMLKGLAPLGEEYASILKEGLENRWVDVYENKGKRNGAYSSGAYGTNPYILMNWHNNVNNLFTLVHEFGHSVHSYYTRKHQPYPYGNYSIFVAEVASTTNEALLGEYLLNNLEDEKQRLYILNHMLEGFRGTVFRQTMFAEFEHLIHTKAQEGEPLTPELLTNVYYDLNKKYFGDGMVIDKEIGLEWSRIPHFYYNYYVYQYATGYSAAQALSSQILKEGKPAVDRYIDFLKAGSSQYPIDVLKKAGVDMTSPEPIEAACKMFEEKLDEMEELLMKVKQS
	binds	DivIVA (protein, UniProt P71021 1-164) MPLTPNDIHNKTFTKSFRGYDEDEVNEFLAQVRKDYEIVLRKKTELEAKVNELDERIGHFANIEETLNKSILVAQEAAEDVKRNSQKEAKLIVREAEKNADRIINESLSKSRKIAMEIEELKKQSKVFRTRFQMLIEAQLDLLKNDDWDHLLEYEVDAVFEEKE
	binds	trigger factor (protein, UniProt P80698 1-424) MSVKWEKQEGNEGVLTVEVDAETFKTALDDAFKKVVKQVSIPGFRKGKIPRGLFEQRFGVEALYQDALDILLPVEYPKAVEEAGIEPVDRPEIDVEKIEKGESLIFTAKVTVKPEVKLGEYKGLGIEKDDTTVTDEDVQNELKALQERQAELVVKEEGAVEEGNTVVLDFEGFVDGEAFEGGKAENYSLEVGSGSFIPGFEDQLVGLEAGAEKDVEVTFPEEYHAEDLAGKPAVFKVKIHEIKAKELPELDDEFAKDIDEEVETLAELTEKTKKRLEEAKENEADAKLREELVLKASENAEIDVPQAMVDTELDRMLKEFEQRLQMQGMNLELYTQFSGQDEAALKEQMKEDAEKRVKSNLTLEAIAKAENLEVSDEEVDAELTKMAEAYNMPVENIKQAIGSTDAMKEDLKVRKAIDFLVENR
	binds	Spo0A (protein, UniProt P06534 1-267) MEKIKVCVADDNRELVSLLSEYIEGQEDMEVIGVAYNGQECLSLFKEKDPDVLVLDIIMPHLDGLAVLERLRESDLKKQPNVIMLTAFGQEDVTKKAVDLGASYFILKPFDMENLVGHIRQVSGNASSVTHRAPSSQSSIIRSSQPEPKKKNLDASITSIIHEIGVPAHIKGYLYLREAISMVYNDIELLGSITKVLYPDIAKKFNTTASRVERAIRHAIEVAWSRGNIDSISSLFGYTVSMTKAKPTNSEFIAMVADKLRLEHKAS
	binds	FtsE (protein, UniProt O34814 1-228) MIEMKEVYKAYPNGVKALNGISVTIHPGEFVYVVGPSGAGKSTFIKMIYREEKPTKGQILINHKDLATIKEKEIPFVRRKIGVVFQDFKLLPKLTVFENVAFALEVIGEQPSVIKKRVLEVLDLVQLKHKARQFPDQLSGGEQQRVSIARSIVNNPDVVIADEPTGNLDPDTSWEVMKTLEEINNRGTTVVMATHNKEIVNTMKKRVIAIEDGIIVRDESRGEYGSYD
	binds	EzrA (protein, UniProt O34894 1-562) MEFVIGLLIVLLALFAAGYFFRKKIYAEIDRLESWKIEILNRSIVEEMSKIKHLKMTGQTEEFFEKWREEWDEIVTAHMPKVEELLYDAEENADKYRFKKANQVLVHIDDLLTAAESSIEKILREISDLVTSEEKSREEIEQVRERYSKSRKNLLAYSHLYGELYDSLEKDLDEIWSGIKQFEEETEGGNYITARKVLLEQDRNLERLQSYIDDVPKLLADCKQTVPGQIAKLKDGYGEMKEKGYKLEHIQLDKELENLSNQLKRAEHVLMTELDIDEASAILQLIDENIQSVYQQLEGEVEAGQSVLSKMPELIIAYDKLKEEKEHTKAETELVKESYRLTAGELGKQQAFEKRLDEIGKLLSSVKDKLDAEHVAYSLLVEEVASIEKQIEEVKKEHAEYRENLQALRKEELQARETLSNLKKTISETARLLKTSNIPGIPSHIQEMLENAHHHIQETVNQLNELPLNMEEAGAHLKQAEDIVNRASRESEELVEQVILIEKIIQFGNRFRSQNHILSEQLKEAERRFYAFDYDDSYEIAAAAVEKAAPGAVEKIKADISA

Reference: paper PMC5325327
